# “And” between values parts separate entries of the source, which are not always exact repeats. Equal values may be shown once. Out of some 260,000 compounds screened, about 1,500 (0.58%) were called active. Inconclusive results, whose numbers are uncertain, are shown with a selection of clear calls.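 How the source made its calls: active means inhibition above a set limit at one or more doses, reproduced on every date tested; inconclusive means results disagree between test dates, or hit never tested in dose response; inactive means the rest.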
# By UniProt entry, the sequences of proteins in these tests, tags left out. Where a name states a change or a piece, a line headed by the entry shows the natural chain unless it says otherwise.
# UniProt P69720: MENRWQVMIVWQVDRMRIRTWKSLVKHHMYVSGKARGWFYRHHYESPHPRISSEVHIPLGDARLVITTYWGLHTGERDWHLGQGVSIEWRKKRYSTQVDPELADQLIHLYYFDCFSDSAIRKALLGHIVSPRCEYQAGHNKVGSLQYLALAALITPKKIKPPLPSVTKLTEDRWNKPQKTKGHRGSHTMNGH
# UniProt P69721: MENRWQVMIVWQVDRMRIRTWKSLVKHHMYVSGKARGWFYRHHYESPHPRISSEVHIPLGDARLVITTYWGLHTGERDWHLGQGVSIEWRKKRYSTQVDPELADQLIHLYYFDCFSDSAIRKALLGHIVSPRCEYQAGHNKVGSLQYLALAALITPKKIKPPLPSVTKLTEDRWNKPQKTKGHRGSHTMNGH
# UniProt P69722: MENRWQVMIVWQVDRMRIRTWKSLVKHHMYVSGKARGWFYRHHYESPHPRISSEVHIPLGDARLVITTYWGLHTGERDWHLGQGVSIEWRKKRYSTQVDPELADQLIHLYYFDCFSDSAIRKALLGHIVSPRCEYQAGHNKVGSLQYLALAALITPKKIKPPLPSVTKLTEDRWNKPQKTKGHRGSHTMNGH
# UniProt P69723: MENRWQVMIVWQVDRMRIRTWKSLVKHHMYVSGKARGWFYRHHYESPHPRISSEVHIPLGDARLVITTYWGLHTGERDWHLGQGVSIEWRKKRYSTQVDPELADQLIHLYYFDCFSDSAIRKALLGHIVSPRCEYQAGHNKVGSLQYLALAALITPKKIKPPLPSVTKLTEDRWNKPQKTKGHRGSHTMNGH
# UniProt Q9HC16: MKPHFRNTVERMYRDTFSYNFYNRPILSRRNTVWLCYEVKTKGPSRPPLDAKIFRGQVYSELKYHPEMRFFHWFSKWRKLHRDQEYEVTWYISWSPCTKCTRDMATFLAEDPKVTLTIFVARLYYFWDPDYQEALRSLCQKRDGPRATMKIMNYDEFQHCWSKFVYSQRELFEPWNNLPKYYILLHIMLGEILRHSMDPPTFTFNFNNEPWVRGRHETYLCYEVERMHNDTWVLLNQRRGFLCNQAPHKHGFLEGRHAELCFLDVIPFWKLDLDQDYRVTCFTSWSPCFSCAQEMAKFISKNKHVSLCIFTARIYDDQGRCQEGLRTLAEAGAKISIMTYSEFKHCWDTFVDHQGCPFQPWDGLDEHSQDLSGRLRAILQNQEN
# Target: Virion infectivity factor (Human immunodeficiency virus type 1 group M subtype B (isolate BH10)) + Virion infectivity factor (Human immunodeficiency virus type 1 group M subtype B (isolate BRU/LAI)) + Virion infectivity factor (Human immunodeficiency virus type 1 group M subtype B (isolate PCV12)) + Virion infectivity factor (Human immunodeficiency virus type 1 group M subtype B (isolate HXB2)) + DNA dC->dU-editing enzyme APOBEC-3G (Homo sapiens) (UniProt P69720+P69721+P69722+P69723+Q9HC16)
# Assay: inhibitors of Vif binding to APOBEC3G peptide, primary screen, biochemical, TR-FRET, GST-Vif 1-94, biotin-A3G peptide, dose response retest (AID 1117319);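 further: Vif residues 1-94 fused to GST binding biotinylated APOBEC3G peptide 110-148; 0% = full assay without inhibitor and 100% = GST in place of GST-Vif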
# Conditions: stronger effect = higher value
row,SMILES,inhibition
1,COc1ccccc1C(=O)N/C(=C\c1ccc(Br)cc1)C(=O)NCCC(=O)O,inactive: -1.86%
2,COc1ccc(-n2c(C)cc(/C=C3/SC(=O)N(CC(=O)N4CCOCC4)C3=O)c2C)cc1,inconclusive: 40.8%
3,CC(C)=CCC/C(C)=C/CC/C(C)=C/CC/C(C)=C/CC1=C(C)C(=O)c2ccccc2C1=O,inconclusive: 46.4%
4,CNCCCOc1cccc(Oc2ccccc2)c1,inactive: 9.66%
5,CCOC(=O)C1=C(CN2CCN(CCC#N)CC2)NC(=O)NC1c1ccc2c(c1)OCO2 (stereo not given),inconclusive: 46.7%
6,Cc1ccccc1CC1SC(N=C(N)N)=NC1=O (stereo not given),inconclusive: 51.3%
7,Nc1c(-c2ccc(Cl)cc2)cnn1-c1cccc(C(F)(F)F)c1,inconclusive: 62.2%
8,Cc1ccc(S(=O)(=O)c2c(N)n(/N=C/c3ccco3)c3nc4ccccc4nc23)cc1C,inconclusive: 40.3%
9,O=C(O)c1cn(-c2ccccc2)nc1C(=O)O,inconclusive: 46.4%
10,CCCCC1=CC2=CC(=O)C(C)(OC(=O)CCc3ccccc3)C(=O)C2=CO1 (stereo not given),inconclusive: 62.5%
11,O=C(Nc1ccccc1Cc1ccccc1)C1CC(=O)N(c2ccc3c(c2)OCCO3)C1 (stereo not given),inconclusive: 39%
12,CCCCc1nnc(NC(=O)Cc2ccc(S(=O)(=O)N3CCOCC3)s2)s1,inactive: -4.48%
13,O=C(CSc1nnc(COc2cccc3ccccc23)o1)N1c2ccccc2CCc2ccccc21,inconclusive: 43.9%
14,CC(=O)Nc1ccc(S(=O)(=O)NC(CC(=O)N(C)Cc2ccccc2)C(C)C)cc1 (stereo not given),inconclusive: 53.5%
15,Cc1sc2nc(C3CC3)nc(SCC(=O)N3CCc4ccccc4C3)c2c1C,inconclusive: 35.2%
16,Cc1ccc(NC(=O)CC2C(=O)NC3CCCCC3N2C(=O)c2ccc(F)cc2)cc1C (stereo not given),inactive: 1.01% and inactive: 26.2%
17,COc1ccc(CNC(=O)N[C@@H](CC(C)C)C(=O)O)cc1OC,inactive: -2.37%
18,Cc1ccc(OCC(=O)Nc2cccc(-c3nnc(-c4ccccc4)o3)c2)cc1,inconclusive: 47.6%
19,O=C(Nc1ccc(S(=O)(=O)NCc2cccnc2)cc1)c1ccco1,inconclusive: 50.7%
20,COC(=O)c1ccccc1NC(=O)/C=C/c1ccco1,inconclusive: 34.3%
21,COC(=O)NCc1cccc(CNC(=O)OC)c1,inconclusive: 59.3%
22,N=C1/C(=C\c2ccc(-c3cccc(C(=O)O)c3)o2)C(=O)N=C2SC=C(c3ccccc3)N12,inconclusive: 38.9%
23,Cc1ccc(NC(=O)C2CC=CCC2C(=O)N2CCCCC2)cc1 (stereo not given),inconclusive: 51.6%
24,Cc1ccc(-c2sc(C(=O)NN)c(C)c2C#N)cc1,inactive: -0.1%
25,Cc1ccc(S(=O)(=O)Nc2cccc(C(=O)N3CCN(c4ccccc4O)CC3)c2)cc1F,inactive: -3.67%
26,CC(=O)Nc1c(C(=O)O)oc2ccccc12,inconclusive: 41.2%
27,CC1(C)Cc2c(C#N)c(N3CCN(C(=O)c4ccco4)CC3)nc(-c3ccco3)c2CS1,inconclusive: 58.6%
28,N#C/C(=C\c1ccc(Sc2nc3ccccc3[nH]2)o1)c1ccccc1,inactive: 4.57%

# 2 entries picked at random from the list so far:
row,SMILES,inhibition
27,CC1(C)Cc2c(C#N)c(N3CCN(C(=O)c4ccco4)CC3)nc(-c3ccco3)c2CS1,inconclusive: 58.6%
23,Cc1ccc(NC(=O)C2CC=CCC2C(=O)N2CCCCC2)cc1 (stereo not given),inconclusive: 51.6%

# Reformatted as tab-separated lines: two of the compounds above
row	SMILES	inhibition
18	Cc1ccc(OCC(=O)Nc2cccc(-c3nnc(-c4ccccc4)o3)c2)cc1	inconclusive: 47.6%
23	Cc1ccc(NC(=O)C2CC=CCC2C(=O)N2CCCCC2)cc1 (stereo not given)	inconclusive: 51.6%

# Additional structures follow.

row,SMILES,inhibition
1,COc1ccc(C(=O)/C=C2/C(=O)Nc3ccccc32)cc1,inactive: 11.7%
2,CCN(CC)CCCC(C)Nc1nccc2cccc(Cl)c12 (stereo not given),inactive: -1%
3,COc1cc2[nH]c(C(=O)NN)c(N)c2cc1OC,inconclusive: 40.6%
4,O=C(CSCC(=O)Nc1cccc([N+](=O)[O-])c1)Nc1ccccc1,inconclusive: 33.4%
5,O=C(Nc1cnn(Cc2ccccc2)c1)NC12CC3CC(CC(C3)C1)C2,inconclusive: 52.7%
6,CC1(C)CC(C)(O)P(=O)(c2ccccc2)O1 (stereo not given),inconclusive: 47%
7,COc1cc(NC(=O)N[C@@H](CCSC)C(=O)O)cc(OC)c1,inconclusive: 61.7%
8,COc1ccccc1NC(=O)CC1C(=O)Nc2ccccc2N1C(=O)c1ccccc1 (stereo not given),inconclusive: 60.2%
9,Oc1ccc(CN2CCc3ccccc3C2)c2cccnc12,inconclusive: 33.9%
10,Cc1ccc(C)c(S(=O)(=O)NCCOC(=O)Nc2sc(=S)n(C)c2C)c1,inconclusive: 40.2%
11,Nc1nc(SCC(=O)NCCCO)nc2sc3c(c12)CCC3,inconclusive: 30.1%
12,Cc1c(C(=O)O)cccc1-c1ccc(/C=C2/NC(=O)N(c3ccccc3)C2=O)o1,inactive: 18.3%
13,O=C(c1ccco1)N1CCN(C2CC(=O)N(c3ccccc3)C2=O)CC1 (stereo not given),inconclusive: 34.2%
14,CC(/C=C1\SC(=S)N(c2ccc(C(=O)O)cc2)C1=O)=C\c1ccccc1,inconclusive: 43%
15,Cc1ccc(C)c(N=Nc2nc3ccccc3n2C)c1,inconclusive: 38.5%
16,O=C(O)c1cc(S(=O)(=O)O)cc(Nc2c3ccccc3nc3ccccc23)c1O,inactive: 5.42%
17,O=C(NCCc1ccccc1F)C1CCCN1S(=O)(=O)c1ccc2ccccc2c1 (stereo not given),inconclusive: 35%
18,S=C(Nc1ccc(N2CCOCC2)cc1)Nc1ccc2nc(-c3ccco3)c(-c3ccco3)nc2c1,inconclusive: 39.2%
19,COCCN(CCOC)C(=O)COC(=O)c1ccc(Cl)c(S(=O)(=O)N(C)c2ccccc2)c1,inconclusive: 33.4%
20,CCOC(=O)N1CCN(C(=O)c2ccc(CS(=O)(=O)c3ccc(OC)cc3)o2)CC1,inconclusive: 50.9%
21,COCCn1nnnc1C(c1ccc(C(F)(F)F)cc1)N1CCOCC1 (stereo not given),inconclusive: 34.2%
22,CCOc1ccc(N(CC(=O)NCCSc2ccccn2)S(C)(=O)=O)cc1,inconclusive: 35.2%
23,Cc1nn(C)c(Cl)c1CN1CCN(CCC(C)C)C(CCO)C1 (stereo not given),inconclusive: 46.4%
24,Cc1ccc(OCC(=O)N/N=C/C=C/c2ccco2)cc1,inconclusive: 59.1%
25,CCOc1ccccc1NC(=O)CCCc1nc2ccccc2c(=O)[nH]1,inconclusive: 20.4%
26,CN(C)S(=O)(=O)c1ccc(NC(=O)CNc2cc(S(=O)(=O)N3CCCC3)ccc2OCC(F)(F)F)cc1,inconclusive: 46.2%
27,Cc1nc2cc(NS(=O)(=O)c3c(C)c(C)cc(C)c3C)ccc2s1,inconclusive: 39.2%

# Reference: PubChem BioAssay AID1117319 (Southern Research Institute, 2015)
